# System: canine esophagus
# Assay: Esophageal irritation potential in a dog model (infusion into esophagus, histopathology)
# Protocol: The esophageal irritation potential of the bisphosphonates is evaluated using a dog model.
# The following solutions are prepared:
# (1) simulated gastric juice (pH about 2), i.e. the control solution.
# (5) simulated gastric juice (pH about 2) containing about 0.20 mg/mL of risedronate sodium on a risedronic acid active basis.
# (6) simulated gastric juice (pH about 2) containing about 4.0 mg/mL of tiludronate disodium on a tiludronic acid active basis.
# The pH of the resulting solution is measured and if necessary is adjusted to about 2 using 1.0 M HCl (aqueous) or 1.0 M NaOH (aqueous).
# The animals used in the experiments are anesthetized and administered about 50 mL of the appropriate solution over about 30 minutes by infusion into the esophagus using an infusion pump and a rubber catheter. The following treatment experiments are run:
# Group 1: This control group contains four animals. Each animal is administered a dosage of about 50 mL of simulated gastric juice [solution (1)] on each of five consecutive days. The animals are sacrificed immediately after the last dose is administered. […]
# Group 7: This group contains eight animals. Each animal is administered a dosage of about 50 mL of simulated gastric juice containing about 0.20 mg/mL of risedronate [solution (5)] on each of five consecutive days. The animals are sacrificed immediately after the last dose is administered.
# Group 8: This group contains four animals. Each animal is administered a dosage of about 50 mL of simulated gastric juice containing about 4.0 mg/mL of tiludronate [solution (6)] on each of five consecutive days. The animals are sacrificed immediately after the last dose is administered.
# The esophagus from each sacrificed animal is removed and prepared for histopathology using standard techniques by embedding the tissue in paraffin, staining with hematoxylin and eosin. The sections are examined microscopically.
# [1] = single high concentration dosage (Groups 3 and 4)
structure (smiles),measurement,setting,value
"NCCCC(O)(P(=O)(O)O)P(=O)(O)O [Alendronate, 4-amino-1-hydroxybutylidene-1,1-bisphosphonic acid monosodium trihydrate]",Esophageal irritation versus low concentration dosages on consecutive days (Group 2),high concentration on a weekly basis (Group 5),considerably less esophageal irritation
same,Esophageal irritation versus control Group 1,[1],comparable to control
same,Esophageal irritation versus low concentration dosages on consecutive days (Group 2),[1],considerably less esophageal irritation
same,Esophageal irritation versus low concentration dosages on consecutive days (Group 2),twice-weekly basis (Group 6),considerably less esophageal irritation

# Source: US6015801A, “Method for inhibiting bone resorption” (Merck & Co., Inc., priority 1998, dated 2000)
